Amino acid sequences for entries named in this document (tags omitted). A change or cut given only in a name is not applied to a line headed by its entry.
UniProt Q9Y5B9, whole entry, looked up: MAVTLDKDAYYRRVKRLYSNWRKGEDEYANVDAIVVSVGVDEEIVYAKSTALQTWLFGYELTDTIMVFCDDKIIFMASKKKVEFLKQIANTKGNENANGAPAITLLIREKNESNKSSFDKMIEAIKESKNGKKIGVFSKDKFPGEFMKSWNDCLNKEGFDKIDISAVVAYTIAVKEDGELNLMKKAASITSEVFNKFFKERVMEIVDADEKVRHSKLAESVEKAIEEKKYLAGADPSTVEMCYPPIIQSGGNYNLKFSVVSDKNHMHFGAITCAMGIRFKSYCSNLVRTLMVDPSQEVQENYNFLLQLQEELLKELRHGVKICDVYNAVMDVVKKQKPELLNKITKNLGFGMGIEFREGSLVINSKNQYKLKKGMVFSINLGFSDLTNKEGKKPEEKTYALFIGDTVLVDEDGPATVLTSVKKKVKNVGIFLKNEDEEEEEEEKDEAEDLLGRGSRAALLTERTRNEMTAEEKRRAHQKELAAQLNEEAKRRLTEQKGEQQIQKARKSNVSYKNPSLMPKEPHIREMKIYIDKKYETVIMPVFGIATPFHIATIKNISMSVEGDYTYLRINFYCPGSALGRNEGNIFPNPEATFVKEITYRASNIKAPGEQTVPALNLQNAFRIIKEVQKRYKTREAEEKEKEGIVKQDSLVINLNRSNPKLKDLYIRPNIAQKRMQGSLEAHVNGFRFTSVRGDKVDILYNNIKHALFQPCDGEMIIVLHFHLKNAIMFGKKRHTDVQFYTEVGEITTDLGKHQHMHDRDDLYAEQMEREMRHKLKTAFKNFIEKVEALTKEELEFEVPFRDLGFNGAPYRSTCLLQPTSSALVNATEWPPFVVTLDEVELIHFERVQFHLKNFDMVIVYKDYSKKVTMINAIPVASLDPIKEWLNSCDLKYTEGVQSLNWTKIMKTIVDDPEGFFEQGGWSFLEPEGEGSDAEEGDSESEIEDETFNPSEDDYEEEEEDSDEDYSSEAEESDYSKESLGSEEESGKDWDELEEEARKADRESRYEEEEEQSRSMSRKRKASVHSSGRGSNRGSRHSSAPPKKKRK
UniProt O00186: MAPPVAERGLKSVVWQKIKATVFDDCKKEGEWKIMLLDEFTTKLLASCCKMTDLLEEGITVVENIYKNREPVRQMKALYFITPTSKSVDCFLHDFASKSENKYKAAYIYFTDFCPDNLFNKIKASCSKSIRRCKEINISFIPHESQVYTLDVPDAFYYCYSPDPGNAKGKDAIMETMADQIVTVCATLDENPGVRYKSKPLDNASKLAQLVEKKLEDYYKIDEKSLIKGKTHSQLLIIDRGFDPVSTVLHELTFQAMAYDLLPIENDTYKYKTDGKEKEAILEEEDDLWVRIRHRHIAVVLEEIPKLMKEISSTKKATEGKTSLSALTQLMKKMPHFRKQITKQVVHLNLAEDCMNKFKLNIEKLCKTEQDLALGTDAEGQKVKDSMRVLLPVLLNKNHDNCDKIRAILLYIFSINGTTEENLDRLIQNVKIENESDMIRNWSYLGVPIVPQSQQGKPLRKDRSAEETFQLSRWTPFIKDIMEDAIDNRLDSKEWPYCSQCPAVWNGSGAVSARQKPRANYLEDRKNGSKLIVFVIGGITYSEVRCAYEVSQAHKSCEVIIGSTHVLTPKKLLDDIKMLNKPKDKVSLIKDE
UniProt Q8N1F8: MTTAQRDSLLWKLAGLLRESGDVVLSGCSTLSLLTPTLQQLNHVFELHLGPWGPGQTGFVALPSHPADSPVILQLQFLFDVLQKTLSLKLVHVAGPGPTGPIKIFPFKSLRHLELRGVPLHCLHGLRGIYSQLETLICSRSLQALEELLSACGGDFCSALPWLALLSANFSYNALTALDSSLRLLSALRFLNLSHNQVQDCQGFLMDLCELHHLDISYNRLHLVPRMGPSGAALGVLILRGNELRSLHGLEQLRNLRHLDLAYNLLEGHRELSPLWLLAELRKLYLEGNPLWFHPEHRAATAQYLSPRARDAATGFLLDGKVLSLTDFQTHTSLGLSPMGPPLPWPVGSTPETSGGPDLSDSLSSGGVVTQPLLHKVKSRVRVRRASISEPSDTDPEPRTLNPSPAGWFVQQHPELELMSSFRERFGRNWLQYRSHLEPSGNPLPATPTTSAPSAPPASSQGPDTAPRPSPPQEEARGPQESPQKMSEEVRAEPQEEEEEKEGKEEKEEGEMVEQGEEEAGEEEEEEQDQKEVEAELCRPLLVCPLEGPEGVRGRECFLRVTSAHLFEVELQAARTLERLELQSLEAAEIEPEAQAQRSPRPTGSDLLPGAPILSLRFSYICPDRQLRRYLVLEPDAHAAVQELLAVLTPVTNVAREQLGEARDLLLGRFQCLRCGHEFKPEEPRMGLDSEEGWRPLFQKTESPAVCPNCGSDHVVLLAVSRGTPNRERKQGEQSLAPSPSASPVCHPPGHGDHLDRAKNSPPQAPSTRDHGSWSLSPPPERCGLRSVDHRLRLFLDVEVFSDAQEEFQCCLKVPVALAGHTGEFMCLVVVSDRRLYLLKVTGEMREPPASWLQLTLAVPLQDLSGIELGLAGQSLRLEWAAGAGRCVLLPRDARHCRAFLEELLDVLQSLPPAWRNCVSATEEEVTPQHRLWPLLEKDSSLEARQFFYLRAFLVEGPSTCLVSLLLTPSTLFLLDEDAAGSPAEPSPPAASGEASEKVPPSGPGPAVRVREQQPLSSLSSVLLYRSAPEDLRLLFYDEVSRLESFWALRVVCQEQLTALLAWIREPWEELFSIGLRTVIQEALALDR
UniProt Q9UJZ1: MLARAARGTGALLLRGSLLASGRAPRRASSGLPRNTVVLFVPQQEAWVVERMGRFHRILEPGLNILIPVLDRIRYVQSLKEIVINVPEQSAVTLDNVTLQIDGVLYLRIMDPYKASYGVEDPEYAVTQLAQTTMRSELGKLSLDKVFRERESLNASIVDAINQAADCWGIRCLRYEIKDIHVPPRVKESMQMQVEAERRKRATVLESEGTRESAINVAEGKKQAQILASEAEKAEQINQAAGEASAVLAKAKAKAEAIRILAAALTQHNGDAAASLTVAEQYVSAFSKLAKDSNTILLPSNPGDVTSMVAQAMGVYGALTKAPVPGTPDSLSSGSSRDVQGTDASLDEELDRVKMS
UniProt Q15527: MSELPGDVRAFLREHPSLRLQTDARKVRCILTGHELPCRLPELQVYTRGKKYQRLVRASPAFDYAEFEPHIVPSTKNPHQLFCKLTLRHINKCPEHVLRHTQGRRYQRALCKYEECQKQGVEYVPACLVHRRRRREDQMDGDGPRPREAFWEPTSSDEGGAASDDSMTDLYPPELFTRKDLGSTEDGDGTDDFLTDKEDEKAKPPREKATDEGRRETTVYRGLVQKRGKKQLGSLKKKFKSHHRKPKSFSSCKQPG
UniProt Q9P2R7: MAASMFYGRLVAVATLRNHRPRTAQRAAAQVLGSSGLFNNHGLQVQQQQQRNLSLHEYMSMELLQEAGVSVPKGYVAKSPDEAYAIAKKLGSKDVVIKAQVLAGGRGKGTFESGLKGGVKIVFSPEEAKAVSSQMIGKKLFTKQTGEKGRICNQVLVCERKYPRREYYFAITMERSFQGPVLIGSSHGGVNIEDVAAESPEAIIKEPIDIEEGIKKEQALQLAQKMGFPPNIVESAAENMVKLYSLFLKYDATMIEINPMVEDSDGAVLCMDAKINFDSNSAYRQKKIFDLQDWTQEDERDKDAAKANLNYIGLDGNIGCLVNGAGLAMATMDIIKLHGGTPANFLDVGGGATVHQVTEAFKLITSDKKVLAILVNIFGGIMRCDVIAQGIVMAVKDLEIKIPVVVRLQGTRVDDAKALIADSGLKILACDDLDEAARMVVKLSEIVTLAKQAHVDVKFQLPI
UniProt Q92783: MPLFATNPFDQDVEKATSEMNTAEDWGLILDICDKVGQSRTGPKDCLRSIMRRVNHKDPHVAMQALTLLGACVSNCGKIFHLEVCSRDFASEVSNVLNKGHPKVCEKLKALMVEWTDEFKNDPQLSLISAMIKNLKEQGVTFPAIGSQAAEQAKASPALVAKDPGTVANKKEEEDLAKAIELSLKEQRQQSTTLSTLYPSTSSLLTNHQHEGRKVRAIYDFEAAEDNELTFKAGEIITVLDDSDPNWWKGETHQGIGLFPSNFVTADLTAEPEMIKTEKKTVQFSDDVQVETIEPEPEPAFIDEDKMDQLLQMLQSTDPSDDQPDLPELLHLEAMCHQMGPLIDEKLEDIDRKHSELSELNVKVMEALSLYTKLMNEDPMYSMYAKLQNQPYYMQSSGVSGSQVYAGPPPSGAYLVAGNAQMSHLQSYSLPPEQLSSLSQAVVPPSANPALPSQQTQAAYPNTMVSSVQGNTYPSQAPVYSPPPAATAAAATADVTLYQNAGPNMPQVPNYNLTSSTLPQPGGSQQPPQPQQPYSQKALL
UniProt P84103: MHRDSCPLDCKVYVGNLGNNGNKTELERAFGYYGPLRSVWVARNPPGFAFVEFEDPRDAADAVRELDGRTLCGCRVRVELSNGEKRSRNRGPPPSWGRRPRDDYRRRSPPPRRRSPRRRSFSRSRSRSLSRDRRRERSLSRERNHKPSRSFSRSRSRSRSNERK
UniProt O43815: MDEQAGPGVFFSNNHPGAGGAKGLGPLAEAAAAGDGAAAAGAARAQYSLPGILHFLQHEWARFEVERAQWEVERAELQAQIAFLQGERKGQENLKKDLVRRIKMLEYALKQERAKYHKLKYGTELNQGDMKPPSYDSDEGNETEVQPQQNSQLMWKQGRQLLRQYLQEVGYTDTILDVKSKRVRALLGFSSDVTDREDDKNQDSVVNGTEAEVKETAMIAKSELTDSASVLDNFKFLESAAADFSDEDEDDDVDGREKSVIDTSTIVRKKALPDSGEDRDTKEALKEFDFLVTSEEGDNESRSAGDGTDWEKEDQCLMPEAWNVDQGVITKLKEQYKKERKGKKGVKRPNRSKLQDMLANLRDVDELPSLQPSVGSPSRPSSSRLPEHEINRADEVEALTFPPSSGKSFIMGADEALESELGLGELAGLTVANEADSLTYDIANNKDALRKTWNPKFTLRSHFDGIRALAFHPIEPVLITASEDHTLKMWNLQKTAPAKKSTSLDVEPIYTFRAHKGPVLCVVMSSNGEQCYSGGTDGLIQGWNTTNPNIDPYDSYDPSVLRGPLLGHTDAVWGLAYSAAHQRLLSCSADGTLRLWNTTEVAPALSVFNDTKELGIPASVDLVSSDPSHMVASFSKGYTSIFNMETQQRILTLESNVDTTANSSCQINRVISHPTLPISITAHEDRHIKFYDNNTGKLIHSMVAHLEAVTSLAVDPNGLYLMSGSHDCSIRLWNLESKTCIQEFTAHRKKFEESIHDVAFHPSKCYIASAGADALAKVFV
UniProt Q8IX01: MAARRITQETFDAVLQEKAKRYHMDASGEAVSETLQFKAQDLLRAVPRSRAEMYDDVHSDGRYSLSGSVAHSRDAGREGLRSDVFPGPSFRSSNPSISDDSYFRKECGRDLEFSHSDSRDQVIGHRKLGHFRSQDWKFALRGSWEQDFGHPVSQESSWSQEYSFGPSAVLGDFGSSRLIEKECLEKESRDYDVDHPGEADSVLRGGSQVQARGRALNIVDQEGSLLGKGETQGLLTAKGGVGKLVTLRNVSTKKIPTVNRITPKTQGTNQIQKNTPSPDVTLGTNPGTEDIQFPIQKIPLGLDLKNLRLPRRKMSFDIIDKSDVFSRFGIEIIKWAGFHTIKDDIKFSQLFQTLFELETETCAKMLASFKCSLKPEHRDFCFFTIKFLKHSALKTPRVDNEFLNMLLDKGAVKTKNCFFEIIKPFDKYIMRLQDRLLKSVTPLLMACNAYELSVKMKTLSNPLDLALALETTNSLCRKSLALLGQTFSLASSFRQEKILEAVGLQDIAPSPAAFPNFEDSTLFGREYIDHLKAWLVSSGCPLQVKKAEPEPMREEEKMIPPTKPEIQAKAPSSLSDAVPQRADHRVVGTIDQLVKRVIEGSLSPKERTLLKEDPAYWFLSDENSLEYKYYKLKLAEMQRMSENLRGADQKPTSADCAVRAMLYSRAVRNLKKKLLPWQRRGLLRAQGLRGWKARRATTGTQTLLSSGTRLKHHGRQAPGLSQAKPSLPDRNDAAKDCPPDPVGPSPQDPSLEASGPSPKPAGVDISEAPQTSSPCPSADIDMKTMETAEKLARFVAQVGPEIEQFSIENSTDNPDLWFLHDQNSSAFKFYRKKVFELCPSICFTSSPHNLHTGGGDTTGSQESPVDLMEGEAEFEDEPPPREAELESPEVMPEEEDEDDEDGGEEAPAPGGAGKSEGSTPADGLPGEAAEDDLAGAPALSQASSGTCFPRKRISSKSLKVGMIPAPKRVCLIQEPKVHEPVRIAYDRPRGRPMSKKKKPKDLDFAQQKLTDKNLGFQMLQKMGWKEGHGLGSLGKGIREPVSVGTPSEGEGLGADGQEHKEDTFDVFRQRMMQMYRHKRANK
UniProt Q8WUJ0: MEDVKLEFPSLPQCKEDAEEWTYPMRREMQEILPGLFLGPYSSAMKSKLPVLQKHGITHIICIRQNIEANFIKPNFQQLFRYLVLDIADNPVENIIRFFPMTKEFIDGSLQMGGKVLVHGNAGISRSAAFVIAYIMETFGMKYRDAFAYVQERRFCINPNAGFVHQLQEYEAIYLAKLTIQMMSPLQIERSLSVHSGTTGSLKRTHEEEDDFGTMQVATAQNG

Some of the results follow.
The targets below were run with CC1Cc2ccccc2N1C(=O)C1CCCN(C1)C(=O)CCl (mixture of isomers) [TRIM25 ligand 11 (diastereomer mixture)] (assay: probe-labelled cysteine peptide fold change vs DMSO (competition) (log2 fold change); higher = less target engagement (more negative = stronger competition)). Settings: 10 µM; THP-1; incubation time: 4 h.
“SUPT16H_Q9Y5B9_574_INFYCPGSALGR (UniProt Q9Y5B9)” was tested, and the “probe-labelled cysteine peptide fold change” value was 0.121.
With “SUPT20H_Q8NEM7_341_SDDSQPTVWPAHDVKDDYVFECEAGTQYQK (UniProt Q8NEM7)” the “probe-labelled cysteine peptide fold change” value was -0.178.
For “STK4_Q13043_80_EISIMQQCDSPHVVK (UniProt Q13043)”, the “probe-labelled cysteine peptide fold change” value was -0.0403.
With “SUZ12_Q15022_531_RTPITHILVCRPK (UniProt Q15022)” the “probe-labelled cysteine peptide fold change” value was -0.127.
In the case of “STXBP3_O00186_26_ATVFDDCKK (UniProt O00186)”, the “probe-labelled cysteine peptide fold change” value is reported as 0.0345.
With “SVIL_O95425_1928_ALIYLWHGCK (UniProt O95425)” the “probe-labelled cysteine peptide fold change” value was -0.0554.
“STXBP2_Q15833_158_EIHLAFLPYEAQVFSLDAPHSTYNLYCPFRAEER (UniProt Q15833)” was tested, and the “probe-labelled cysteine peptide fold change” value was -0.269.
For “STK11IP_Q8N1F8_710_TESPAVCPNCGSDHVVLLAVSR (UniProt Q8N1F8)”, the “probe-labelled cysteine peptide fold change” value was 0.0375.
In the case of “STAT3_P40763_687_YCRPESQEHPEADPGSAAPYLK (UniProt P40763)”, the “probe-labelled cysteine peptide fold change” value is reported as 0.0338.
For “STOML2_Q9UJZ1_167_ERESLNASIVDAINQAADCWGIR (UniProt Q9UJZ1)”, the “probe-labelled cysteine peptide fold change” value was -0.0664.
With “STOML2_Q9UJZ1_167_ESLNASIVDAINQAADCWGIR (UniProt Q9UJZ1)” the “probe-labelled cysteine peptide fold change” value was 0.0415.
In the case of “SURF2_Q15527_29+38_CILTGHELPCR (UniProt Q15527)”, the “probe-labelled cysteine peptide fold change” value is reported as -0.183.
For “ST14_Q9Y5Y6_214_TQDNSCSFGLHAR (UniProt Q9Y5Y6)”, the “probe-labelled cysteine peptide fold change” value was 0.123.
“STK10_O94804_873_DMLAQCESNMSELQQLQNEK (UniProt O94804)” was tested, and the “probe-labelled cysteine peptide fold change” value was -0.213.
“STARD7_Q9NQZ5_362_KNEGSCGPAR (UniProt Q9NQZ5)” was tested, and the “probe-labelled cysteine peptide fold change” value was -0.12.
“SUCLA2_Q9P2R7_384_CDVIAQGIVMAVK (UniProt Q9P2R7)” was tested, and the “probe-labelled cysteine peptide fold change” value was 0.0376.
In the case of “STAM_Q92783_76_DPHVAMQALTLLGACVSNCGK (UniProt Q92783)”, the “probe-labelled cysteine peptide fold change” value is reported as 0.027.
“SRSF3_P84103_6_DSCPLDCK (UniProt P84103)” was tested, and the “probe-labelled cysteine peptide fold change” value was -0.208.
With “STXBP3_O00186_26_ATVFDDCK (UniProt O00186)” the “probe-labelled cysteine peptide fold change” value was 0.0374.
In the case of “STUB1_Q9UNE7_232_DIPDYLCGK (UniProt Q9UNE7)”, the “probe-labelled cysteine peptide fold change” value is reported as 0.149.
For “SSRP1_Q08945_139_FGGQLLSFDIGDQPVFEIPLSNVSQCTTGK (UniProt Q08945)”, the “probe-labelled cysteine peptide fold change” value was 0.26.
“SUPT6H_Q7KZ85_1465_EKPTFIPYFICACK (UniProt Q7KZ85)” was tested, and the “probe-labelled cysteine peptide fold change” value was -0.0763.
With “SUCLG1_P53597_172_LIGPNCPGVINPGECK (UniProt P53597)” the “probe-labelled cysteine peptide fold change” value was -0.0627.
For “SRSF7_Q16629_106+109_CYECGEK (UniProt Q16629)”, the “probe-labelled cysteine peptide fold change” value was 0.0653.
For “SSH3_Q8TE77_634_TQAFQEQEQGQGQGQGEPCISSTPR (UniProt Q8TE77)”, the “probe-labelled cysteine peptide fold change” value was -0.0571.
In the case of “SURF2_Q15527_127_QGVEYVPACLVHR (UniProt Q15527)”, the “probe-labelled cysteine peptide fold change” value is reported as -0.276.
For “STRN_O43815_765_CYIASAGADALAK (UniProt O43815)”, the “probe-labelled cysteine peptide fold change” value was 0.0216.
“SWAP70_Q9UH65_261_KGDILLDENCCVESLPDK (UniProt Q9UH65)” was tested, and the “probe-labelled cysteine peptide fold change” value was 0.0552.
In the case of “SUGP2_Q8IX01_417_NCFFEIIKPFDK (UniProt Q8IX01)”, the “probe-labelled cysteine peptide fold change” value is reported as -0.0766.
“STAT2_P52630_74_CSQDPESLLLQHNLR (UniProt P52630)” was tested, and the “probe-labelled cysteine peptide fold change” value was 0.116.
In the case of “SSRP1_Q08945_200_ADVIQATGDAICIFR (UniProt Q08945)”, the “probe-labelled cysteine peptide fold change” value is reported as -0.0282.
In the case of “STYX_Q8WUJ0_156_FCINPNAGFVHQLQEYEAIYLAK (UniProt Q8WUJ0)”, the “probe-labelled cysteine peptide fold change” value is reported as 0.115.
With “SUMF2_Q8NBJ7_290_CAADAGRPPGEL (UniProt Q8NBJ7)” the “probe-labelled cysteine peptide fold change” value was -0.0159.
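Further: competitive chemoproteomic profiling in live THP-1 cells with an iodoacetamide desthiobiotin (IA-DTB) probe, comparing probe-labelled peptide intensities in compound-treated cells against DMSO-treated controls.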
